According to PubChem BioAssay AID652054 (National Center for Advancing Translational Sciences (NCATS), 2013):
In all, about 360,000 compounds went through this assay and about 9,100 (2.5%) were called active. This list was built around the results that the source calls inconclusive (neither active nor inactive); the mix of calls is not that of the screen. Cut-off read from the data, not from the text of the source: active = max response below about -50%; inconclusive = no clear call, values can overlap the other calls; inactive = above that.

Amino acid sequences for entries named in this document (tags omitted).
UniProt P35462, whole entry, looked up: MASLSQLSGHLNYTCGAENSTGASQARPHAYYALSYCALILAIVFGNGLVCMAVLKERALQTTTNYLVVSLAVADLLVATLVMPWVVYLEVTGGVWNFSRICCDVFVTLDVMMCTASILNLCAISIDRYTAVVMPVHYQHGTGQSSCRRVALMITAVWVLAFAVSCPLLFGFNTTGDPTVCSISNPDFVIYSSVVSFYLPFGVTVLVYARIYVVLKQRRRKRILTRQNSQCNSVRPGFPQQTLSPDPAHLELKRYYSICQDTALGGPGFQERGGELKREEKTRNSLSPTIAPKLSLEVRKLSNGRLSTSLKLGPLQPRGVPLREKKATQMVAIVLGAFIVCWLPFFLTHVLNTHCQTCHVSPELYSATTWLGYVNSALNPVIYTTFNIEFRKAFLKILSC

Target: D(3) dopamine receptor (Homo sapiens) (UniProt P35462)
Assay: qHTS of D3 Dopamine Receptor Antagonist: qHTS
Details: D3R cells, DiscoveRx beta-arrestin luminescence, antagonist mode; stronger effect = lower value
Method in brief: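 Cells plated overnight at 1500 cells/well, then exposed to library compounds with dopamine controls for 90 minutes at 37 degrees C. DiscoveRx reagent added for 30–60 minutes at room temperature; luminescence read, quantitative HTS format.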
% is set by controls: 0 for no effect and ±100 for the full control effect.

**Q.** How did the max response, negative = inhibition turn out when `Fc1ccc(-c2nc3ccc(Cl)cn3c2Cc2ccccc2C(F)(F)F)cc1` was run?
**A.** The max response, negative = inhibition was inactive: -5.42%.

**Q.** `COCCN(CCOC)C(=O)C1CCCN(S(=O)(=O)c2ccc(NC(=O)OC)cc2)C1` (stereo unspecified) was tested. Which max response, negative = inhibition did it give?
**A.** Its max response, negative = inhibition is inactive: 1.96%.

**Q.** With `COC(=O)[C@H](CC(C)C)N(Cc1ccccc1)S(=O)(=O)N(Cc1ccccc1)[C@@H](CC(C)C)C(=O)OC` as the compound, how does the max response, negative = inhibition read?
**A.** The max response, negative = inhibition was inconclusive: -31.3%.

**Q.** `Cc1ccc(Sc2nnc(-c3ccccc3)cc2C#N)cc1` was tested. Which max response, negative = inhibition did it give?
**A.** Its max response, negative = inhibition is inconclusive: -42.8%.

**Q.** Which max response, negative = inhibition does the source give for `CC1CCN(C(=O)C2CCN(S(=O)(=O)c3cccc4nonc34)CC2)CC1` here?
**A.** Its max response, negative = inhibition is inactive: -2.83%.

**Q.** With `Cn1c2ccccc2c(=O)c2c(=O)n(-c3ccccc3)c(C3CCCCC3)nc21` as the compound, how does the max response, negative = inhibition read?
**A.** Its max response, negative = inhibition is inactive: -22.1%.

**Q.** How did the max response, negative = inhibition turn out when `COC(=O)c1ccc(NC(=O)c2cn(-c3ccccc3)nc2-c2ccncc2)cc1` was run?
**A.** Its max response, negative = inhibition is active: -67.2%.

**Q.** `Cc1cc(C)cc(-n2c(C)cc(C(=O)CSc3nnnn3C)c2C)c1` was tested. Which max response, negative = inhibition did it give?
**A.** Its max response, negative = inhibition is inconclusive: -31.5%.

**Q.** How did the max response, negative = inhibition turn out when `CC1=C(C(=O)N2CCCCCC2)CC(CC(=O)NCCc2ccccn2)C(=O)N1Cc1ccc(C(C)(C)C)cc1` (stereo unspecified) was run?
**A.** Its max response, negative = inhibition is inconclusive: -39.7%.

**Q.** For `ClC(Cl)(Cl)c1nc(N/N=C/c2ccncc2)c2ccccc2n1`, which max response, negative = inhibition is on record?
**A.** Its max response, negative = inhibition is inactive: 53.4%.

**Q.** `CCOC(=O)CCCNC(=O)CN1CCC(c2nc3ccccc3s2)CC1` was tested. Which max response, negative = inhibition did it give?
**A.** Its max response, negative = inhibition is inconclusive: -38.1%.

**Q.** With `COc1cccc(N2CCN(c3nc(-c4ccccc4C)cc(=O)[nH]3)CC2)c1` as the compound, how does the max response, negative = inhibition read?
**A.** The max response, negative = inhibition was inactive: 5.19%.

**Q.** How did the max response, negative = inhibition turn out when `NC(N)=NCCCC(NC(=O)c1ccccc1)C(=O)Nc1ccc([N+](=O)[O-])cc1` (stereo unspecified) was run?
**A.** The max response, negative = inhibition was active: -93.7%.

**Q.** `Nc1nnnn1/N=C/c1ccc(O)cc1` was tested. Which max response, negative = inhibition did it give?
**A.** Its max response, negative = inhibition is inactive: -22.4%.

**Q.** `O=C(N/N=C/c1ccc([N+](=O)[O-])o1)c1cc(-c2ccc(-c3ccccc3)cc2)nc2ccccc12` was tested. Which max response, negative = inhibition did it give?
**A.** The max response, negative = inhibition was inconclusive: -34%.

**Q.** How did the max response, negative = inhibition turn out when `CCn1c(C)nc2cc(C(=O)NNS(=O)(=O)c3ccccc3F)ccc21` was run?
**A.** The max response, negative = inhibition was inconclusive: -44.6%.

**Q.** For `COCCN1C(=O)c2ccccc2C1c1nc2ccccc2[nH]1` (stereo unspecified), which max response, negative = inhibition is on record?
**A.** The max response, negative = inhibition was inactive: 13.7%.

**Q.** With `O=C(CCn1c(=O)c2cccn2c2ccccc21)Nc1ccc(F)cc1` as the compound, how does the max response, negative = inhibition read?
**A.** The max response, negative = inhibition was active: -65%.

**Q.** With `O=C1CSC2(N1)C1CC3CC(C1)CC2C3` (stereo unspecified) as the compound, how does the max response, negative = inhibition read?
**A.** Its max response, negative = inhibition is inconclusive: -32.8%.

**Q.** How did the max response, negative = inhibition turn out when `CCOc1ccc(S(=O)(=O)NC(Cc2c[nH]c3ccccc23)C(=O)O)cc1` (stereo unspecified) was run?
**A.** The max response, negative = inhibition was inactive: -16.6%.

**Q.** With `CC(C)(C)c1ccc(-c2csc(NNC3=NCCCCC3)n2)cc1` as the compound, how does the max response, negative = inhibition read?
**A.** Its max response, negative = inhibition is inconclusive: -39.8%.

**Q.** With `O=c1c2cccnc2[nH]c(=S)n1CCCN1CCN(c2ccccc2F)CC1` as the compound, how does the max response, negative = inhibition read?
**A.** The max response, negative = inhibition was active: -54.6%.

**Q.** Which max response, negative = inhibition does the source give for `CCCCCCCCNC(C)C(O)c1ccc(SC(C)C)cc1` (stereo unspecified) here?
**A.** The max response, negative = inhibition was inconclusive: -49.8%.

**Q.** Which max response, negative = inhibition does the source give for `O=C1c2cccnc2C(=O)N1Cc1cccs1` here?
**A.** Its max response, negative = inhibition is inconclusive: -31%.

**Q.** Which max response, negative = inhibition does the source give for `CCOC(=O)C1=C(C)NC2=C(C(=O)CC(C)(C)C2)C1c1cccc(C)n1` (stereo unspecified) here?
**A.** The max response, negative = inhibition was inactive: -20.5%.

**Q.** How did the max response, negative = inhibition turn out when `Cc1cc(C)cc(NC(=O)C(NCCN2CCOCC2)c2ccccc2)c1` (stereo unspecified) was run?
**A.** Its max response, negative = inhibition is inconclusive: -39.5%.

**Q.** `Cn1c(=O)n(Cc2ccc(F)cc2)c(=O)c2c1nc1n2CCCN1C1CCCCC1` was tested. Which max response, negative = inhibition did it give?
**A.** The max response, negative = inhibition was active: -99.4%.

**Q.** `CC(C)Oc1cc(F)ccc1-c1cc(C(=O)Nc2ccc(C(C)C)cc2)[nH]n1` was tested. Which max response, negative = inhibition did it give?
**A.** Its max response, negative = inhibition is inactive: -9.53%.

**Q.** Which max response, negative = inhibition does the source give for `O=C(Oc1oc(-c2ccco2)nc1C=Nc1ccccc1)c1ccoc1` here?
**A.** Its max response, negative = inhibition is inconclusive: -31%.

**Q.** With `Cc1nn(CC(=O)Nc2ccc3c(c2)nc(CCN2CCCCC2)n3C)c(=O)c2ccccc12` as the compound, how does the max response, negative = inhibition read?
**A.** Its max response, negative = inhibition is inconclusive: -34%.

**Q.** How did the max response, negative = inhibition turn out when `CCC1CCCCN1CCCNC(=O)c1cn(CC(C)C)c(=O)c2cc(OC)c(OC)cc12` (stereo unspecified) was run?
**A.** Its max response, negative = inhibition is active: -67.8%.

**Q.** Which max response, negative = inhibition does the source give for `CC1CCC2(CC1)NC(=O)N(NC(=O)CCc1c[nH]c3ccccc13)C2=O` (stereo unspecified) here?
**A.** Its max response, negative = inhibition is inconclusive: -39.4%.

**Q.** How did the max response, negative = inhibition turn out when `C=CC[C@@H](Cc1ccc(F)cc1)C(=O)OC[C@@H]1CCCN1C(=O)[C@@H](CC=C)CC(=O)N[C@H](CO)Cc1ccccc1` was run?
**A.** The max response, negative = inhibition was inconclusive: -49.6%.

**Q.** Which max response, negative = inhibition does the source give for `COc1ccc(CCNS(=O)(=O)c2cccc(C)c2)cc1OC` here?
**A.** Its max response, negative = inhibition is inactive: 10.5%.

**Q.** Which max response, negative = inhibition does the source give for `O=[N+]([O-])c1c(NCCCO)cc(Sc2nc3ccccc3s2)c2nonc12` here?
**A.** The max response, negative = inhibition was active: -89.9%.

**Q.** For `CCCc1noc2c1C(c1ccoc1)C(C#N)=C(N)N2` (stereo unspecified), which max response, negative = inhibition is on record?
**A.** The max response, negative = inhibition was inconclusive: -31.5%.

**Q.** For `CCN(CC)CCN(C(=O)c1ccc2c(c1)CCCC2)c1nc2c(C)cccc2s1`, which max response, negative = inhibition is on record?
**A.** Its max response, negative = inhibition is active: -51.4%.

**Q.** `Cc1ccc(-c2cc(C(=O)NC3CCCCC3)no2)cc1` was tested. Which max response, negative = inhibition did it give?
**A.** The max response, negative = inhibition was inactive: 2.47%.

**Q.** With `CC(C)N1CCCC(C)(C(=O)Nc2cccc(Oc3ccccc3)c2)C1` (stereo unspecified) as the compound, how does the max response, negative = inhibition read?
**A.** Its max response, negative = inhibition is inconclusive: -42.8%.

**Q.** Which max response, negative = inhibition does the source give for `O=C(C[n+]1cccc(NC(=O)c2ccccc2)c1)c1ccccc1` here?
**A.** The max response, negative = inhibition was inconclusive: -39.5%.

**Q.** How did the max response, negative = inhibition turn out when `COc1cc(/C=N\n2cnnc2)ccc1OCC(=O)Nc1ccc(C)cc1` was run?
**A.** The max response, negative = inhibition was inconclusive: -41.5%.

**Q.** How did the max response, negative = inhibition turn out when `Cc1cccc(C)c1-n1c(C)cc(/C=N\Nc2ccc([N+](=O)[O-])cn2)c1C` was run?
**A.** Its max response, negative = inhibition is inconclusive: -36.6%.

**Q.** With `C/C(=N\NC(=O)CCCOc1ccc(Cl)cc1C)c1ccc(C)o1` as the compound, how does the max response, negative = inhibition read?
**A.** Its max response, negative = inhibition is inconclusive: -31.7%.

**Q.** Which max response, negative = inhibition does the source give for `COc1ccccc1NC(=O)Cn1c(=O)n(C)c(=O)c2sc3c(c21)COC(C)(C)C3` here?
**A.** Its max response, negative = inhibition is inconclusive: -30.8%.

**Q.** For `CCCn1c(=O)[nH]c(=O)c2c1nc(-c1ccc(OC(F)F)cc1)n2CCN1CCOCC1`, which max response, negative = inhibition is on record?
**A.** Its max response, negative = inhibition is inconclusive: -37.7%.

**Q.** With `O=C1C(Nc2cccc(O)c2)=C(N2CCCCC2)C(=O)c2ccccc21` as the compound, how does the max response, negative = inhibition read?
**A.** The max response, negative = inhibition was inconclusive: -45.5%.

**Q.** `CNC(=S)Nc1cccc(-c2cnc3ccccc3n2)c1` was tested. Which max response, negative = inhibition did it give?
**A.** The max response, negative = inhibition was active: -73.7%.

**Q.** How did the max response, negative = inhibition turn out when `O=C(c1ccco1)n1nc(NCc2ccccc2)nc1NCc1ccccc1` was run?
**A.** Its max response, negative = inhibition is inconclusive: -49.4%.

**Q.** `Cc1cc(C(=O)OCC(=O)NCCC(C)C)c2ccccc2n1` was tested. Which max response, negative = inhibition did it give?
**A.** Its max response, negative = inhibition is inactive: 10.8%.

**Q.** With `Cc1ccc(C)c(NC(=S)NCC(c2ccccc2)N(C)C)c1` (stereo unspecified) as the compound, how does the max response, negative = inhibition read?
**A.** The max response, negative = inhibition was active: -60.4%.

**Q.** How did the max response, negative = inhibition turn out when `CCOC(=O)C1(Cc2cccc(OC)c2)CCN(C/C=C/c2ccccc2)CC1` was run?
**A.** Its max response, negative = inhibition is inconclusive: -33.4%.

**Q.** Which max response, negative = inhibition does the source give for `CC(C)(C)c1ccc(NC(=O)N2CCCN(c3c(Cl)cncc3Cl)CC2)cc1` here?
**A.** Its max response, negative = inhibition is inconclusive: -43.3%.

**Q.** How did the max response, negative = inhibition turn out when `CN1CCC/C1=C/C=C1\SC(=S)NC1=O` was run?
**A.** Its max response, negative = inhibition is active: -64.3%.

**Q.** How did the max response, negative = inhibition turn out when `CC(C)CNS(=O)(=O)c1cc(C(=O)N2CC(C)OC(C)C2)c(Cl)cc1Cl` (stereo unspecified) was run?
**A.** Its max response, negative = inhibition is active: -54.6%.

**Q.** Which max response, negative = inhibition does the source give for `NCc1cc2c3c(c1)CCCN3CCC2` here?
**A.** Its max response, negative = inhibition is active: -65.5%.

**Q.** For `CNCCC=C1c2ccccc2C=Cc2ccccc21`, which max response, negative = inhibition is on record?
**A.** The max response, negative = inhibition was active: -77.2%.
